Test results from patent US11209420B2, “Cancer diagnostics, therapeutics, and drug discovery associated with macropinocytosis” (New York University, priority 2011, dated 2021).
At least one structure is not confirmed: it was looked up by name or label, or the drawing left a doubt.

System: K-Ras^V12-transformed NIH3T3 cells
Assay: High-throughput macropinocytosis assay, amended protocol
Type: cell-based, murine
Details: high-throughput quantification
Source text: To explore the flexibility of the high-throughput compatible macropinocytosis assay, the HeLa-based Spot Detector BioApplication parameters were amended to quantify macropinocytosis in K-Ras^V12-expressing NIH3T3 cells. To do this, object identification parameters were altered to accommodate larger nuclei and the spot identification target region was adjusted accordingly. Untransformed NIH3T3 cells display low levels of macropinocytosis, compared to K-Ras^V12-transformed cells. Using this amended protocol, it was possible to quantify fluid-phase uptake in these cells and determine that K-Ras^V12-expressing cells have a 3-4 fold increase in macropinocytosis (FIGS. 2A-2B). To examine the effects of macropinocytosis inhibitors, K-Ras^V12-transformed NIH3T3 cells were treated with increasing concentrations of LY294002 or EIPA.

O=c1cc(N2CCOCC2)oc2c(-c3ccccc3)cccc12 [LY294002, 2-(4-morpholinyl)-8-phenyl-4H-1-benzopyran-4]
effect on macropinocytosis with increasing concentrations: dose-response relationship
